Data reported in publication doi:10.1101/2025.10.21.683613.
These are yes or no findings as the source states them, for the method shown. In cells and extracts the contact can be indirect. Some results given as binding are weak or reduced against the parent protein; the word gives no strength. Where a sequence is shown, tags or fusion partners need not be part of it.

Amino acid sequences for entries named in this document (tags omitted). A change or cut given only in a name is not applied to a line headed by its entry.
UniProt P62258, whole entry: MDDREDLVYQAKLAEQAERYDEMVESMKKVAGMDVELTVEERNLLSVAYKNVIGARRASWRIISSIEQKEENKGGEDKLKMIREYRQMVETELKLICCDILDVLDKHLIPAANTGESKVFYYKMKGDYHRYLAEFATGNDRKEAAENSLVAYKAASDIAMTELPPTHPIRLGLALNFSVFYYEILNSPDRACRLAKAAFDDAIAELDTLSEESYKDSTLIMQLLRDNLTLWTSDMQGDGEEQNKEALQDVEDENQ

Key:
Assay in all cases: co-IP
[1] = molecular target: HA-14-3-3ε^AAA (E251-253A) (UniProt P62258)
HA-14-3-3ε^K50/215R = HA-14-3-3ε^K50/215R (UniProt P62258)
HA-14-3-3ε^WT = HA-14-3-3ε^WT (UniProt P62258)

Measured: binding

B1: Flag-RIG-I (protein, UniProt O95786 1-925)
chain: MTTEQRRSLQAFQDYIRKTLDPTYILSYMAPWFREEEVQYIQAEKNNKGPMEAATLFLKFLLELQEEGWFRGFLDALDHAGYSGLYEAIESWDFKKIEKLEEYRLLLKRLQPEFKTRIIPTDIISDLSECLINQECEEILQICSTKGMMAGAEKLVECLLRSDKENWPKTLKLALEKERNKFSELWIVEKGIKDVETEDLEDKMETSDIQIFYQEDPECQNLSENSCPPSEVSDTNLYSPFKPRNYQLELALPAMKGKNTIICAPTGCGKTFVSLLICEHHLKKFPQGQKGKVVFFANQIPVYEQQKSVFSKYFERHGYRVTGISGATAENVPVEQIVENNDIIILTPQILVNNLKKGTIPSLSIFTLMIFDECHNTSKQHPYNMIMFNYLDQKLGGSSGPLPQVIGLTASVGVGDAKNTDEALDYICKLCASLDASVIATVKHNLEELEQVVYKPQKFFRKVESRISDKFKYIIAQLMRDTESLAKRICKDLENLSQIQNREFGTQKYEQWIVTVQKACMVFQMPDKDEESRICKALFLYTSHLRKYNDALIISEHARMKDALDYLKDFFSNVRAAGFDEIEQDLTQRFEEKLQELESVSRDPSNENPKLEDLCFILQEEYHLNPETITILFVKTRALVDALKNWIEGNPKLSFLKPGILTGRGKTNQNTGMTLPAQKCILDAFKASGDHNILIATSVADEGIDIAQCNLVILYEYVGNVIKMIQTRGRGRARGSKCFLLTSNAGVIEKEQINMYKEKMMNDSILRLQTWDEAVFREKILHIQTHEKFIRDSQEKPKPVPDKENKKLLCRKCKALACYTADVRVIEECHYTVLGDAFKECFVSRPHPKPKQFSSFEKRAKIFCARQNCSHDWGIHVKYKTFEIPVIKIESFVVEDIATGVQTLYSKWKDFHFEKIPFDPAEMSK
binds: [1] | HA-14-3-3ε^K50/215R | HA-14-3-3ε^WT
